Measured values from PMC3514319.
Numbering of substitutions follows the chain as printed. No constants are given. Whether binding was seen depends on the method and setting. In cells and extracts the contact can be indirect. Some entries that bind do so weakly or less than the wild type. Sequences can lack the tags named with a protein.

How the values were obtained:
[1] = target: T1, HA-tagged Rab11-CA (Q70L) (Drosophila) (UniProt O18335); experiment: co-IP; as a1, but EDTA removed from the lysis buffer to compare Rab11-DN and Rab11-CA; anti-HA affinity gel 3 h at 4°C; Western blot with anti-HA and anti-FLAG
T1 sequence: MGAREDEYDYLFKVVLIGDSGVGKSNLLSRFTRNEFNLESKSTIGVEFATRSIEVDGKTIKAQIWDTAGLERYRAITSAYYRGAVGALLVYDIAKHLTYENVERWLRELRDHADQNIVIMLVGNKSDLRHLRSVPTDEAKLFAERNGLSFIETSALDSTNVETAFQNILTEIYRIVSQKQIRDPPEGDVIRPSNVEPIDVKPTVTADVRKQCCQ

[2] = target: T2, HA-tagged Rab11-DN (S25N) (Drosophila) (UniProt O18335); experiment: as above
T2 sequence: T1 sequence with S25N, L70Q

[3] = target: T3, HA-tagged Rab11 (Drosophila) (UniProt O18335); experiment: co-IP; S2 cells co-transfected; lysis buffer 50 mM Tris-HCl pH 8.0, 100 mM NaCl, 1 mM EDTA, 1% Nonidet P-40; lysate incubated with anti-HA affinity gel 3 h at 4°C; Western blot with anti-HA and anti-FLAG
T3 sequence: T1 sequence with L70Q

FLAG-tagged Crag (Calmodulin-binding protein related to a Rab3 GDP/GTP exchange protein) (from UniProt Q9W3D3 1-1671)
binding [1]: binds weakly | binding [2]: binds | binding [3]: binds
